# Data: article PMC8079274
# Results are given in words; binding and its absence hold for the method and conditions named. In cells and extracts the contact can be indirect. Some results given as binding are weak or reduced against the parent protein; the word gives no strength.
# Molecular target: T1, KSR1 in KSR1+/+ mouse embryo fibroblasts (cells that overexpress KSR1) (UniProt Q61097)
# T1 sequence: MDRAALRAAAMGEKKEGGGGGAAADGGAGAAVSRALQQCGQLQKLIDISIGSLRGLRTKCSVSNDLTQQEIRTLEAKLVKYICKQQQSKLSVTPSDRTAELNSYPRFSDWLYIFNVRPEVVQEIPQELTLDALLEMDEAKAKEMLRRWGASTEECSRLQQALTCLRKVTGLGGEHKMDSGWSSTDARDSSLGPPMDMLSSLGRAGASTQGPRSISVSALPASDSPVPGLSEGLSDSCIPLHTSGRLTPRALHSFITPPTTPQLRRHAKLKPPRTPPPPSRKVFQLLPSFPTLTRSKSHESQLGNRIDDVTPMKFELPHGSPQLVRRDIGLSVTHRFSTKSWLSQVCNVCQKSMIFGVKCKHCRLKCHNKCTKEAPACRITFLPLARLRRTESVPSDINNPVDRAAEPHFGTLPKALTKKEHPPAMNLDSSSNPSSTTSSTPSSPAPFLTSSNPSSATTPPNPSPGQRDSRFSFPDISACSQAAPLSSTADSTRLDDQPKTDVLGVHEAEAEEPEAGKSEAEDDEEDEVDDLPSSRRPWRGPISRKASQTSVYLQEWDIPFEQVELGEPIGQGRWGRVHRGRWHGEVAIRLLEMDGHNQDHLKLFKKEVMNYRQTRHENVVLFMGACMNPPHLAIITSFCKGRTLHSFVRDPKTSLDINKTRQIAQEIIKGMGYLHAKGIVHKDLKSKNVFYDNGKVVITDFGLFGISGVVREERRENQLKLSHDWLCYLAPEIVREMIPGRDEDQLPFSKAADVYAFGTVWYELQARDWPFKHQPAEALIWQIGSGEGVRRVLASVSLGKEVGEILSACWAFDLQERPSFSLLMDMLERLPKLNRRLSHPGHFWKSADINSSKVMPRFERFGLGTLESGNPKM
# Assay: co-IP; serum-starved KSR1+/+ MEFs with vehicle or 40 μM CGS9343B for 16 h; 1 mg lysate precipitated with anti-KSR1 antibody, blot for MEK1 or ERK
substance,measurement,value
endogenous MEK1 (from UniProt P31938 1-393),binding,binds
